Experimental data from PMC7210266.
Results are given in words; binding and its absence hold for the method and conditions named. Binding seen in cells or lysates may run through a third protein.

The chains behind the UniProt entries cited, without tags or fusion partners.
UniProt Q08775: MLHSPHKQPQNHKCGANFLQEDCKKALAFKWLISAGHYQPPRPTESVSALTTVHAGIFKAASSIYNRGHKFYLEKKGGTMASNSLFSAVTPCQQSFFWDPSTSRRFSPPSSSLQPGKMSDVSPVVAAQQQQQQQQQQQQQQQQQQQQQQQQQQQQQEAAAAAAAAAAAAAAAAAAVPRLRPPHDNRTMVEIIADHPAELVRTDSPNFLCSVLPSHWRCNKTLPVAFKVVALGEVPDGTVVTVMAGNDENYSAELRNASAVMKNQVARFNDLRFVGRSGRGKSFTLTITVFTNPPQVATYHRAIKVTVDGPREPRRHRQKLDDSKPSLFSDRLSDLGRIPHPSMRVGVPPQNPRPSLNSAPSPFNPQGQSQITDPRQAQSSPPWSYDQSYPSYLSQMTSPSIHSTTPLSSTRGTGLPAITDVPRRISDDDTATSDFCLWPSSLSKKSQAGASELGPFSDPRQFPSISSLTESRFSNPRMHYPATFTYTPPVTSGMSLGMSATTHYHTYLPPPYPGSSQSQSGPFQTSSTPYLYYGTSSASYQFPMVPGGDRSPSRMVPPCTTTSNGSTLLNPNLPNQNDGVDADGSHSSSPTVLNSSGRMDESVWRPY
UniProt B1AY13: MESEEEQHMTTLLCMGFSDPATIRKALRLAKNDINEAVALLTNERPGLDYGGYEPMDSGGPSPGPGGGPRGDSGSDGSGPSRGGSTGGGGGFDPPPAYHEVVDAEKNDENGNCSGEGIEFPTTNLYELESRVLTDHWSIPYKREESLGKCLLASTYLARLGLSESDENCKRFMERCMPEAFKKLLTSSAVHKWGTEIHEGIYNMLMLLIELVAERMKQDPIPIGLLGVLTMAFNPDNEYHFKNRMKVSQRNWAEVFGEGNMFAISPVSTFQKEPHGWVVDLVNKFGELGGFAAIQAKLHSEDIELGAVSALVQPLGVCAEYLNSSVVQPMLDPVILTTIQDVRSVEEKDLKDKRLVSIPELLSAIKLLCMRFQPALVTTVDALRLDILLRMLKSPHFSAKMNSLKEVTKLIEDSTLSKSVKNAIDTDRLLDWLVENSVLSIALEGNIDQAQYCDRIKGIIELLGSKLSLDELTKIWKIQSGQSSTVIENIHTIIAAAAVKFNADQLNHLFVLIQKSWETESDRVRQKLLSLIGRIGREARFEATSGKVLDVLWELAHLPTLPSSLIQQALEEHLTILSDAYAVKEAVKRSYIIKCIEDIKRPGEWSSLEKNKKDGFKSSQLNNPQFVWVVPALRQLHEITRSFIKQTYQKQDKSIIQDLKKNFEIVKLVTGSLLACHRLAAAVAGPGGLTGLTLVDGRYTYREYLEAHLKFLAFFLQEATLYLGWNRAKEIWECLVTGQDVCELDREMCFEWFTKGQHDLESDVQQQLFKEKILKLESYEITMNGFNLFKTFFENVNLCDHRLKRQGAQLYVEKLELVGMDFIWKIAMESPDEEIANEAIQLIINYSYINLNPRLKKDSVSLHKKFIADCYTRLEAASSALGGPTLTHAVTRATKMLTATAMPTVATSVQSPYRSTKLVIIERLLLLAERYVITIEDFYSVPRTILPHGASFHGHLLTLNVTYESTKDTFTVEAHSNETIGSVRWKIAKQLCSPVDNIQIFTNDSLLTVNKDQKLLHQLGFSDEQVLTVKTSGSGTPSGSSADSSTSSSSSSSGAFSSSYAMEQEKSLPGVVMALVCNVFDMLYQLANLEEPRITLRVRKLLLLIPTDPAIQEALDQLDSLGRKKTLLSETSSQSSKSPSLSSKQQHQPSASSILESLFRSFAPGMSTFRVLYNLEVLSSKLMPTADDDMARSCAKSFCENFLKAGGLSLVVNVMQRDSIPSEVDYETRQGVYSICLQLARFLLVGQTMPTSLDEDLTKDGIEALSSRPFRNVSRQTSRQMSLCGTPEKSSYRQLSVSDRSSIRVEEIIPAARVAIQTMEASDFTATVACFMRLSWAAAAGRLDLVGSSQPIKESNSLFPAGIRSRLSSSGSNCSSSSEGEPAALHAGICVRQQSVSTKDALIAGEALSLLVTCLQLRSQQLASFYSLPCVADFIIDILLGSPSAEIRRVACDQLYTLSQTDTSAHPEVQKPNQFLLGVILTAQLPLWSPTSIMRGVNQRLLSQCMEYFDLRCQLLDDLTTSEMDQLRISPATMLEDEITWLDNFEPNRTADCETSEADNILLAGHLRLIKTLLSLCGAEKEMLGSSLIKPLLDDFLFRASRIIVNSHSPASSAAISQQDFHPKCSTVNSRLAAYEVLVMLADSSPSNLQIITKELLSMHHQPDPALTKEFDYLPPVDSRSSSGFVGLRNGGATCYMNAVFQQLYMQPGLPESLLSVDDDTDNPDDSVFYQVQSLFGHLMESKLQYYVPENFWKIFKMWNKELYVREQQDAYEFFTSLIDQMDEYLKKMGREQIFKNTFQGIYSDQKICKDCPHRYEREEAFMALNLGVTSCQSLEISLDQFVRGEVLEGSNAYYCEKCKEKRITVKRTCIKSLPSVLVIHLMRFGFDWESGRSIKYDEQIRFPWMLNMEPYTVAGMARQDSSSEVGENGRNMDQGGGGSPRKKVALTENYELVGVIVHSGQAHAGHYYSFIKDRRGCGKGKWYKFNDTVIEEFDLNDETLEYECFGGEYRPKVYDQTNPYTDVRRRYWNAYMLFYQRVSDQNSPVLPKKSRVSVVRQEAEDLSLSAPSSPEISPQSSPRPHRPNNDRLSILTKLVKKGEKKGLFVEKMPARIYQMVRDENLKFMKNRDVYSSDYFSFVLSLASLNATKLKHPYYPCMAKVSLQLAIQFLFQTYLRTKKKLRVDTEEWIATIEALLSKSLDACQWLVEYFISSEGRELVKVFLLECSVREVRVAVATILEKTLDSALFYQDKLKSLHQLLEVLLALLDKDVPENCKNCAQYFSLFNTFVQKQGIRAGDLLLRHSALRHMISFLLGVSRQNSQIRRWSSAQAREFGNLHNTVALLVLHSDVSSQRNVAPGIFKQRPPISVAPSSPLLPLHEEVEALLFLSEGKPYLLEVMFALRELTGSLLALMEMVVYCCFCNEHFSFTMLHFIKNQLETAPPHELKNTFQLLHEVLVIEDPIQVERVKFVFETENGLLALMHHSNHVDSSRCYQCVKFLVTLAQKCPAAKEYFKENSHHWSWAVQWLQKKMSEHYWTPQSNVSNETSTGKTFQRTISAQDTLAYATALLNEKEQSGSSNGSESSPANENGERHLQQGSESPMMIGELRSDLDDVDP

Biological target: RUNX2 (endogenous, mouse calvarial osteoblasts) (mouse (endogenous in COBs)) (UniProt Q08775)
Experiment: co-IP; endogenous proteins in lysate of wild-type mouse COBs (50 mM Tris-HCl pH 7.4, 150 mM NaCl, 1% Triton X-100, 1 mM EDTA, 1 mM EGTA); IgG control or anti-RUNX2 and protein G-conjugated agarose; immunoblot

## USP24 (endogenous, mouse calvarial osteoblasts) (from UniProt B1AY13 1-2617) (enzyme)
  binding: no binding
